Record: PubChem BioAssay AID602196 (INSERM, 2012)
In all, the deposit lists about 23,000 reagents; this is an unselected part. Of all reagents, 455 (2%) got an active call. 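Active includes both protection and sensitisation; some change values fall well beyond the stated -50 to +50 range.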 A number with no mark means an inactive call. Not stated in the record: the amount of reagent.

Screen: 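Modifiers of cisplatin sensitivity in A549 cells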
Cells: human A549 lung cancer cells
Reagents: siRNA pair against human genes
Timing: 48 h transfection before cisplatin; time from cisplatin to read-out not stated
Challenge: cisplatin at a dose killing half of control-siRNA cells; exact dose and duration not given
Measured: 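Cisplatin cell death as a shift from the 50% death seen with control siRNA; siRNAs toxic or growth-blocking alone scored 0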
Reading the numbers: two-siRNA summed score (-2 to +2): higher = both siRNAs protect from cisplatin killing; -2 means both sensitise; mean protection from cisplatin (shift in death) and protection from cisplatin (shift in death), siRNA C and protection from cisplatin (shift in death), siRNA D: higher = protection from cisplatin killing
Active means: 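Each siRNA scores 0 if harmful alone by LDH or WST-1, otherwise +1 if it reduces and -1 if it increases cisplatin killing; a gene is active when both siRNAs agree (sum +2 or -2)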
Calls: active = both siRNAs shift cisplatin killing the same way; inactive = no consistent shift, or siRNA harmful alone

gene knocked down,two-siRNA summed score (-2 to +2),mean protection from cisplatin (shift in death) (%),"protection from cisplatin (shift in death), siRNA C (%)","protection from cisplatin (shift in death), siRNA D (%)"
RTL3,0,7.6,-8.7,23.9
NR1H2,0,-2.7,-1.9,-3.4
LOC286126,0,6.2,11.8,0.5
PRSS48,0,6.6,8.5,4.7
STAG1,1,8.2,2.3,14
ATP13A4,0,4.6,11.3,-2.1
LOC441433,0,24.2,45.2,3.2
LOC442251,0,4.7,6.5,2.8
KCNQ5,0,-9.9,-12.1,-7.6
FGD4,0,3.9,-0.2,8
GML,0,0.6,-11.6,12.8
LMCD1,0,9.1,10.5,7.7
HSPA8P6,0,6.2,12.4,-0.1
GIGYF2,0,-0.9,-4.7,2.9
ADAMTS14,-1,-5.7,12.9,-24.3
RNF111,0,-10.8,-14.7,-6.9
MORN3,0,3.8,24.9,-17.3
LOC401464,0,13.4,19.1,7.7
GPR34,-1,-7.2,1.7,-16.2
LOC442069,1,9.6,1.9,17.3
LOC400852,0,7.4,18.5,-3.8

A portion from the list above, as a working copy:
gene knocked down,two-siRNA summed score (-2 to +2),mean protection from cisplatin (shift in death) (%),"protection from cisplatin (shift in death), siRNA C (%)","protection from cisplatin (shift in death), siRNA D (%)"
GML,0,0.6,-11.6,12.8
LMCD1,0,9.1,10.5,7.7

The listing continues.
gene knocked down,two-siRNA summed score (-2 to +2),mean protection from cisplatin (shift in death) (%),"protection from cisplatin (shift in death), siRNA C (%)","protection from cisplatin (shift in death), siRNA D (%)"
LOC402237,1,7.3,16.8,-2.1
ABHD1,0,-5,-9.5,-0.6
TERF2,0,-1.6,-12.2,9
USP34,-1,-6.9,8.1,-21.9
LOC256126,0,7.5,10.5,4.4
LOC147941,0,1.8,15.9,-12.3
GPR171,0,-6.2,-2.6,-9.8
LYRM2,0,-6.5,-7.5,-5.6
PCDHGB7,0,6.7,8.4,5
SYNGR1,0,-4.3,-10.5,1.9
NKAIN4,0,1.1,-7.4,9.5
NOX1,0,-8.4,-15.6,-1.2
BECN1,0,4.4,8.3,0.5
FKBP1C,0,-0.6,-3.7,2.5
WHRN,0,11.2,2.6,19.8
HDAC2,-1,-0.2,12.5,-12.8
RPL23A,0,8.9,1.7,16.2
LINGO2,0,-12.3,11.9,-36.4
